Taken from: PubChem BioAssay AID652243 (Drosophila RNAi Screening Center, 2013)

Screen: 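Fly genes required for human androgen receptor driven transcription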 (primary screen)
Cell system: Drosophila S2R+ cells
Reagent: long dsRNA against Drosophila genes
Timing: 72 h (48 h, then 24 h hormone)
Treatment: synthetic androgen R1881 at 10 nM for 24 h
Measurement: 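Firefly light from an androgen-responsive reporter and Renilla control light per well, raw and unnormalised, for each of two replicates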
Scale: firefly reporter light: higher = more light from androgen-responsive reporter; Renilla control light: higher = more constitutive control signal (cell number, transfection)
Call rule: 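Hit when the log firefly-to-Renilla ratio dropped or increased by a fixed fold versus the mean of GFP or LacZ controls across duplicate plates; lowering cut given as 1.5 and as 3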
Calls: active = hit: reporter lowered or raised; inactive = no hit
In all, the deposit lists about 24,000 reagents; below is a random part of those that have a named target and a result. Over the whole deposit, 246 (1%) got an active call. 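Plates not normalised; calls are printed but the firefly/Renilla ratio behind them is not deposited; fold cut for lowering reported inconsistently.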 Raw values are not corrected between plates. Reagents against one gene are numbered here. A plus sign joins genes that one reagent is predicted to hit. Not stated in the record: the amount of reagent.

no.	gene	reagent	firefly reporter light, replicate 1	firefly reporter light, replicate 2	Renilla control light, replicate 1	Renilla control light, replicate 2	Outcome
1	nsr	1	4.57e5	2.66e5	1.20e6	9.62e5	inactive
2	nsr	2	3.96e5	8.09e5	7.62e5	1.67e6	inactive
3	ng3	1	2.22e5	1.66e5	3.21e6	2.29e6	inactive
4	ng3	2	4.83e5	4.01e5	5.28e5	4.50e5	inactive
5	SCCRO3	1	1.36e5	1.08e5	1.07e6	1.11e6	inactive
6	SCCRO3	2	3.40e5	3.43e5	6.38e5	8.18e5	inactive
7	rpk	1	39667	33413	3.38e5	4.12e5	inactive
8	rpk	2	7.03e5	7.26e5	1.99e6	2.01e6	inactive
9	D19B	1	1.03e5	77014	1.09e6	1.05e6	inactive
10	D19B	2	6.79e5	3.86e5	2.57e5	2.64e5	inactive
11	CG12608	1	61748	91206	6.41e5	5.74e5	inactive
12	CG5793 + Obp93a	1	3.55e5	3.47e5	3.13e6	3.54e6	inactive
13	CG7714	1	4.22e5	3.65e5	3.95e6	4.31e6	inactive
14	CG7714	2	1.54e6	1.38e6	1.42e6	1.11e6	inactive
15	CG11722	1	1.49e5	2.00e5	1.78e6	2.03e6	active
16	CG10973	1	1.13e6	5.33e5	1.38e6	1.16e6	inactive
17	Ypel	1	1.24e5	1.41e5	8.71e5	8.50e5	inactive
18	Ypel	2	3.18e5	3.75e5	7.84e5	9.72e5	inactive
19	CG2059	1	3.37e5	3.64e5	3.51e6	2.47e6	inactive
20	sr	1	2.46e5	1.89e5	3.54e5	3.36e5	inactive
21	sr	2	2.62e5	2.73e5	6.32e5	4.56e5	inactive
22	CG30279 (retired record)	1	4.00e5	6.89e5	1.36e6	2.21e6	inactive
23	CG30279 (retired record)	2	2.42e5	2.42e5	3.50e5	6.06e5	inactive
24	I-t	1	1.35e5	1.14e5	2.66e6	2.85e6	inactive
25	I-t	2					inactive
26	Muc4B	1	2.20e5	3.33e5	1.54e6	2.35e6	inactive
27	Muc4B	2	3.74e5	3.92e5	3.30e6	3.87e6	inactive
28	Muc4B	3	7.28e5	3.84e5	7.45e5	3.69e5	inactive
29	mip40	1	2.51e5	6.52e5	4.66e5	8.89e5	inactive
30	CG10910	1	1.22e5	91338	2.03e6	2.03e6	inactive
31	CG10910	2	4.99e5	4.74e5	1.55e6	1.40e6	inactive
32	CG5727	1	9.32e5	7.88e5	2.74e6	2.32e6	inactive
33	CG5727	2	3.79e5	5.56e5	7.09e5	7.09e5	inactive
34	fng	1	2.42e5	1.83e5	6.84e5	6.20e5	inactive
35	fng	2	33082	41145	4.82e5	4.68e5	inactive
36	fng	3	6.04e5	5.48e5	1.53e6	1.88e6	inactive
37	Sec31	1	8.47e5	8.42e5	1.09e6	1.25e6	inactive
38	Sec31	2	4.77e5	2.93e5	6.57e5	4.50e5	inactive
39	CG13814 (retired record)	1	2.70e5	2.39e5	2.62e6	2.80e6	inactive
40	CG1827	1	6.05e5	6.23e5	1.58e6	1.38e6	inactive
41	Msr-110	1	4.10e5	3.21e5	1.00e6	1.32e6	inactive
42	Msr-110	2	5.42e5	5.09e5	5.89e5	7.34e5	inactive
43	CG8149	1	1.81e5	2.09e5	3.73e6	3.59e6	inactive
44	CG9497	1	6.78e5	6.79e5	1.82e6	2.37e6	inactive
45	CG9497	2	7.79e5	9.17e5	1.06e6	1.05e6	inactive
46	fipi	1	67682	1.04e5	3.48e5	5.44e5	inactive
47	fipi	2	7.31e5	6.60e5	9.67e5	6.54e5	inactive
48	Mal-A3	1	1.89e5	2.24e5	1.60e6	1.41e6	inactive
49	Mal-A3	2	3.83e5	4.06e5	1.14e6	1.19e6	inactive
50	tinc	1	84289	94313	9.86e5	1.28e6	inactive
51	tinc	2	54057	72366	7.35e5	9.81e5	inactive
52	tinc	3	35504	47567	6.91e5	1.25e6	inactive
53	tinc	4	1.57e5	1.74e5	2.65e6	2.27e6	inactive
54	CG8545	1	9.70e5	5.71e5	1.98e6	1.24e6	inactive
55	CG15386 + CG42371	1	1.91e5	1.60e5	1.13e6	8.90e5	inactive
56	CG15386 + CG42371	2	6.60e5	7.61e5	1.34e6	1.20e6	inactive
57	AsnRS-m	1	56355	2.48e5	9.32e5	9.32e5	inactive
58	RpS15	1	1.34e5	1.90e5	1.09e6	1.09e6	inactive
59	RpS15	2	2.28e5	98744	5.62e5	2.78e5	inactive
60	BomS2	1	7.81e5	7.69e5	1.29e6	1.79e6	inactive
61	CG43318	1	2.46e5	1.14e5	2.80e6	2.54e6	inactive
62	DIP-gamma	1	1.38e5	1.16e5	1.05e6	8.87e5	inactive
63	Or67a	1	1.99e5	1.52e5	2.83e6	1.93e6	inactive
64	CG5342	1	98204	93324	1.27e6	1.10e6	inactive
65	myd	1	2.80e5	2.79e5	2.21e6	2.77e6	inactive
66	CG4942	1	1.11e6	9.78e5	1.61e6	1.86e6	inactive
67	Mrm2	1	2.90e5	3.56e5	3.63e6	3.90e6	inactive
68	Mrm2	2	1.33e6	8.69e5	3.63e6	1.73e6	inactive
69	lectin-21Ca	1	95599	64597	7.14e5	6.87e5	inactive
70	D	1	1.77e5	1.47e5	1.83e6	1.13e6	inactive
71	D	2	3.93e5	5.97e5	3.16e5	3.60e5	inactive
72	CG13436	1	55901	47770	6.66e5	7.31e5	inactive
73	Vrp1	1	7.91e5	2.19e5	2.00e6	9.64e5	inactive
74	Vrp1	2	4.22e5	4.39e5	5.85e5	5.41e5	inactive

Copied from the listing (10 entries):
no.	gene	reagent	firefly reporter light, replicate 1	firefly reporter light, replicate 2	Renilla control light, replicate 1	Renilla control light, replicate 2	Outcome
14	CG7714	2	1.54e6	1.38e6	1.42e6	1.11e6	inactive
15	CG11722	1	1.49e5	2.00e5	1.78e6	2.03e6	active
16	CG10973	1	1.13e6	5.33e5	1.38e6	1.16e6	inactive
17	Ypel	1	1.24e5	1.41e5	8.71e5	8.50e5	inactive
18	Ypel	2	3.18e5	3.75e5	7.84e5	9.72e5	inactive
19	CG2059	1	3.37e5	3.64e5	3.51e6	2.47e6	inactive
20	sr	1	2.46e5	1.89e5	3.54e5	3.36e5	inactive
21	sr	2	2.62e5	2.73e5	6.32e5	4.56e5	inactive
22	CG30279 (retired record)	1	4.00e5	6.89e5	1.36e6	2.21e6	inactive
23	CG30279 (retired record)	2	2.42e5	2.42e5	3.50e5	6.06e5	inactive
